{"sequences": {"note": "Protein sequences, listed by entry. Tags and fused reporters are not part of them. Residues count along the entry.", "UniProt Q9NZQ7, residues 19-290": "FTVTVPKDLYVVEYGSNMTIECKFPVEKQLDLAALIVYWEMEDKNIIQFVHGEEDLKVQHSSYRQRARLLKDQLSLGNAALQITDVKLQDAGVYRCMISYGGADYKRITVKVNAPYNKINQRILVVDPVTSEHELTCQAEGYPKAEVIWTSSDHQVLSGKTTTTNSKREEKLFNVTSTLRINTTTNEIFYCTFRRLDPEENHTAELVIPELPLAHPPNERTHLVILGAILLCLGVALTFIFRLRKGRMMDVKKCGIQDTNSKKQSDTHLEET"}, "source": "paper PMC11187912", "key": {"[1]": {"biological_target": "endogenous PD‐L1 (UniProt Q9NZQ7)", "assay": "co-IP; Co‐IP of USP22 and endogenous PD‐L1, immunoblot; which protein was precipitated, cells and buffer not stated"}, "[2]": {"biological_target": "FLAG‐PD‐L1 (UniProt Q9NZQ7)", "assay": "co-IP; FLAG‐PD‐L1 immunoprecipitated, bound USP22 detected by immunoblot; cells and buffer not stated"}}, "note": "These are yes or no findings as the source states them, for the method shown. Binding seen in cells or lysates may run through a third protein. Some entries that bind do so weakly or less than the wild type."}
{"binder": "ubiquitin‐specific peptidase 22 (USP22) (enzyme, UniProt Q9UPT9 1-525) MVSRPEPEGEAMDAELAVAPPGCSHLGSFKVDNWKQNLRAIYQCFVWSGTAEARKRKAKSCICHVCGVHLNRLHSCLYCVFFGCFTKKHIHEHAKAKRHNLAIDLMYGGIYCFLCQDYIYDKDMEIIAKEEQRKAWKMQGVGEKFSTWEPTKRELELLKHNPKRRKITSNCTIGLRGLINLGNTCFMNCIVQALTHTPLLRDFFLSDRHRCEMQSPSSCLVCEMSSLFQEFYSGHRSPHIPYKLLHLVWTHARHLAGYEQQDAHEFLIAALDVLHRHCKGDDNGKKANNPNHCNCIIDQIFTGGLQSDVTCQVCHGVSTTIDPFWDISLDLPGSSTPFWPLSPGSEGNVVNGESHVSGTTTLTDCLRRFTRPEHLGSSAKIKCSGCHSYQESTKQLTMKKLPIVACFHLKRFEHSAKLRRKITTYVSFPLELDMTPFMASSKESRMNGQYQQPTDSLNNDNKYSLFAVVNHQGTLESGHYTSFIRQHKDQWFKCDDAIITKASIKDVLDSEGYLLFYHKQFLEYE", "values": [{"measurement": "binding", "setting": "[1]", "result": "binds"}, {"measurement": "binding", "setting": "[2]", "result": "binds"}]}
